# Data published in the supplement of paper PMC6411743.
# ± gives the standard deviation of the averaged measurements. The list shows a part of the results, in another mix than the full data.
# Key:
# Assay in all cases: NP40-soluble protein abundance relative to vehicle (solubility fold change) (ratio); higher = more soluble protein in presence of ATP
# [1] = target: T1, UniProt O75688 and related entries
# T1 sequence (whole entry): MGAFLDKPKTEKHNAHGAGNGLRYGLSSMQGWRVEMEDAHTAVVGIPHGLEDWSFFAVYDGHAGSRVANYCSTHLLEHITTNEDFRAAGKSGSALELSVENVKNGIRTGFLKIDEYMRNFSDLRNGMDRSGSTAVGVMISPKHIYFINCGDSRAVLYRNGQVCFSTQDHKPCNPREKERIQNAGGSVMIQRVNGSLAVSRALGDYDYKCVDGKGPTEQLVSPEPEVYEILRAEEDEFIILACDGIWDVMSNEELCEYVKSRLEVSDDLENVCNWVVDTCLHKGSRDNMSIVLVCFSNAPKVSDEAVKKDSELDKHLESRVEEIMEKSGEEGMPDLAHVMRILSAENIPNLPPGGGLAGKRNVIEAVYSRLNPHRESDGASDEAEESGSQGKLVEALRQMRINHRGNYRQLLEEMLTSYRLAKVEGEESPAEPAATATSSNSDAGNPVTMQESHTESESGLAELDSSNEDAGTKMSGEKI
# Outline: (§1)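 Jurkat crude lysate prepared with a Dounce homogeniser was treated at eight concentrations spanning 0.1 to 10 mM, 10 min at room temperature then 3 min at 37 °C. Solubilisation with 0.8% NP40 and benzonase and ultracentrifugation preceded TMT labelling of the supernatant for LC-MS/MS. Fold change against the detergent-processed vehicle was determined per replicate from vsn-normalised intensities, across three independent experiments.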
# [2] = target: T2, UniProt O75845
# T2 sequence (whole entry): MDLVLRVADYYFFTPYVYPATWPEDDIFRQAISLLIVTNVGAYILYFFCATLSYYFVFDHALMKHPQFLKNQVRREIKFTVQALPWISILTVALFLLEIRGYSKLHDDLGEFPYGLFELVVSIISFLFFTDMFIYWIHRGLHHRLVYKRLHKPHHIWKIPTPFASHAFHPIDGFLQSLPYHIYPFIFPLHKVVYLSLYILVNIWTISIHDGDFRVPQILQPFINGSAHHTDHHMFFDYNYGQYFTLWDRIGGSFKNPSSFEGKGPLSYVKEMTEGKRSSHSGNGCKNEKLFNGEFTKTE
# Outline: as §1
# [3] = target: T3, UniProt O75934
# T3 sequence (whole entry): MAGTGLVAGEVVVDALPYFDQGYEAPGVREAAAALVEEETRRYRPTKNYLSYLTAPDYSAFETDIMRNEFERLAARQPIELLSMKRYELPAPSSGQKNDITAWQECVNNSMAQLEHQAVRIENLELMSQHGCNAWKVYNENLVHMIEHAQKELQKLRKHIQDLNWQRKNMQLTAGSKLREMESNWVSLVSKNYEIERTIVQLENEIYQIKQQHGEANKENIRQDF
# Outline: as §1
# [4] = target: T4, UniProt O94864 and related entries
# T4 sequence (whole entry): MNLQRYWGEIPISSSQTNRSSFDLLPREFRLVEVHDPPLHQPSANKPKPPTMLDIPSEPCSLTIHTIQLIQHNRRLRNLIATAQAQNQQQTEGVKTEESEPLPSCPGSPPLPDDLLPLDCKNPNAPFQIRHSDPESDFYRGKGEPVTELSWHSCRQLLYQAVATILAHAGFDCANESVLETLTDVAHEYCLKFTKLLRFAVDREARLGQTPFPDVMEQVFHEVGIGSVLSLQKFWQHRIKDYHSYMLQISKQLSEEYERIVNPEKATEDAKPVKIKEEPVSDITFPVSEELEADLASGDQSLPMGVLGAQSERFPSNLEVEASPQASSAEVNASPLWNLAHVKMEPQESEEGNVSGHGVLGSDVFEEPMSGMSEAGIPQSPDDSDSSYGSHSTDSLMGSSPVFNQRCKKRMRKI
# Outline: as §1
# [5] = target: T5, UniProt O95479 and related entries
# T5 sequence (whole entry): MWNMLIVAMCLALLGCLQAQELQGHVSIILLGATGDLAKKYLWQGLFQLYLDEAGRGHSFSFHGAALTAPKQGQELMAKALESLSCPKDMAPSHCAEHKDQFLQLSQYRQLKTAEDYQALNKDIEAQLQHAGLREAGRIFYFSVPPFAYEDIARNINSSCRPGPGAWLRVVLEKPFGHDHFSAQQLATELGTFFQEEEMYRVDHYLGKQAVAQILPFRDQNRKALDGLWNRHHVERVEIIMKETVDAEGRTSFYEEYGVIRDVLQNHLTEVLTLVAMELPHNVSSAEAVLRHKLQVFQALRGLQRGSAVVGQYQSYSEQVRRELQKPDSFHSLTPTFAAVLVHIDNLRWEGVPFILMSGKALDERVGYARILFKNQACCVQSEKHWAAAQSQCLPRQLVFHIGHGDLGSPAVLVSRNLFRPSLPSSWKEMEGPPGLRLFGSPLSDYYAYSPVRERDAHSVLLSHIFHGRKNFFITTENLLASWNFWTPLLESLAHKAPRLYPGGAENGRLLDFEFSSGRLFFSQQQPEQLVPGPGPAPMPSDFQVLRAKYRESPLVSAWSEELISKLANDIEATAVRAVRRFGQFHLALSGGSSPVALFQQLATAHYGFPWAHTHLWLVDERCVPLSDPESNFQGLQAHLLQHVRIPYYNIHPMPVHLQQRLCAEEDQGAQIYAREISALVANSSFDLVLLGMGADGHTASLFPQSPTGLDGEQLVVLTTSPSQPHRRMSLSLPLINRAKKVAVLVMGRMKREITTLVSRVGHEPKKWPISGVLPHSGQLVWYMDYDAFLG
# Outline: as §1
smiles,measurement,setting,value
Nc1ncnc2c1ncn2[C@@H]1O[C@H](COP(=O)(O)OP(=O)(O)OP(=O)(O)O)[C@@H](O)[C@H]1O [adenosine triphosphate],NP40-soluble protein abundance,[1]; concentration: 1mM,0.981 ± 0.047
same,NP40-soluble protein abundance,[1]; concentration: 2mM,0.977 ± 0.037
same,NP40-soluble protein abundance,[1]; concentration: 4mM,0.959 ± 0.056
same,NP40-soluble protein abundance,[1]; concentration: 6mM,0.964 ± 0.013
same,NP40-soluble protein abundance,[1]; concentration: 8mM,0.934 ± 0.048
same,NP40-soluble protein abundance,[1]; concentration: 10mM,0.965 ± 0.082
same,NP40-soluble protein abundance,[2]; concentration: 1mM,1.01 ± 0.085
same,NP40-soluble protein abundance,[2]; concentration: 2mM,0.998 ± 0.079
same,NP40-soluble protein abundance,[2]; concentration: 4mM,1.05 ± 0.096
same,NP40-soluble protein abundance,[2]; concentration: 6mM,0.957 ± 0.077
same,NP40-soluble protein abundance,[2]; concentration: 8mM,1.02 ± 0.035
same,NP40-soluble protein abundance,[2]; concentration: 10mM,0.987 ± 0.072
same,NP40-soluble protein abundance,[3]; concentration: 1mM,1.02 ± 0.072
same,NP40-soluble protein abundance,[3]; concentration: 2mM,1 ± 0.06
same,NP40-soluble protein abundance,[3]; concentration: 4mM,1.05 ± 0.057
same,NP40-soluble protein abundance,[3]; concentration: 6mM,1.1 ± 0.093
same,NP40-soluble protein abundance,[3]; concentration: 8mM,1.14 ± 0.054
same,NP40-soluble protein abundance,[3]; concentration: 10mM,1.11 ± 0.06
same,NP40-soluble protein abundance,[4]; concentration: 1mM,0.995 ± 0.057
same,NP40-soluble protein abundance,[4]; concentration: 2mM,0.947 ± 0.097
same,NP40-soluble protein abundance,[4]; concentration: 4mM,0.965 ± 0.1
same,NP40-soluble protein abundance,[4]; concentration: 6mM,0.992 ± 0.086
same,NP40-soluble protein abundance,[4]; concentration: 8mM,1.04 ± 0.087
same,NP40-soluble protein abundance,[4]; concentration: 10mM,0.913 ± 0.11
same,NP40-soluble protein abundance,[5]; concentration: 1mM,1.06 ± 0.083
same,NP40-soluble protein abundance,[5]; concentration: 2mM,1.02 ± 0.049
same,NP40-soluble protein abundance,[5]; concentration: 4mM,1.04 ± 0.056

# Reformatted tab-delimited: part of the list above
smiles	measurement	setting	value
Nc1ncnc2c1ncn2[C@@H]1O[C@H](COP(=O)(O)OP(=O)(O)OP(=O)(O)O)[C@@H](O)[C@H]1O [adenosine triphosphate]	NP40-soluble protein abundance	[2]; concentration: 8mM	1.02 ± 0.035
same	NP40-soluble protein abundance	[2]; concentration: 10mM	0.987 ± 0.072
